Data on 1 molecule can be found in US20050048634A1.

Protein sequences, listed by entry. Tags and fused reporters are not part of them. Lines headed by an entry give the natural chain unless they say otherwise; changes in a name come on top.
UniProt Q8TEK3: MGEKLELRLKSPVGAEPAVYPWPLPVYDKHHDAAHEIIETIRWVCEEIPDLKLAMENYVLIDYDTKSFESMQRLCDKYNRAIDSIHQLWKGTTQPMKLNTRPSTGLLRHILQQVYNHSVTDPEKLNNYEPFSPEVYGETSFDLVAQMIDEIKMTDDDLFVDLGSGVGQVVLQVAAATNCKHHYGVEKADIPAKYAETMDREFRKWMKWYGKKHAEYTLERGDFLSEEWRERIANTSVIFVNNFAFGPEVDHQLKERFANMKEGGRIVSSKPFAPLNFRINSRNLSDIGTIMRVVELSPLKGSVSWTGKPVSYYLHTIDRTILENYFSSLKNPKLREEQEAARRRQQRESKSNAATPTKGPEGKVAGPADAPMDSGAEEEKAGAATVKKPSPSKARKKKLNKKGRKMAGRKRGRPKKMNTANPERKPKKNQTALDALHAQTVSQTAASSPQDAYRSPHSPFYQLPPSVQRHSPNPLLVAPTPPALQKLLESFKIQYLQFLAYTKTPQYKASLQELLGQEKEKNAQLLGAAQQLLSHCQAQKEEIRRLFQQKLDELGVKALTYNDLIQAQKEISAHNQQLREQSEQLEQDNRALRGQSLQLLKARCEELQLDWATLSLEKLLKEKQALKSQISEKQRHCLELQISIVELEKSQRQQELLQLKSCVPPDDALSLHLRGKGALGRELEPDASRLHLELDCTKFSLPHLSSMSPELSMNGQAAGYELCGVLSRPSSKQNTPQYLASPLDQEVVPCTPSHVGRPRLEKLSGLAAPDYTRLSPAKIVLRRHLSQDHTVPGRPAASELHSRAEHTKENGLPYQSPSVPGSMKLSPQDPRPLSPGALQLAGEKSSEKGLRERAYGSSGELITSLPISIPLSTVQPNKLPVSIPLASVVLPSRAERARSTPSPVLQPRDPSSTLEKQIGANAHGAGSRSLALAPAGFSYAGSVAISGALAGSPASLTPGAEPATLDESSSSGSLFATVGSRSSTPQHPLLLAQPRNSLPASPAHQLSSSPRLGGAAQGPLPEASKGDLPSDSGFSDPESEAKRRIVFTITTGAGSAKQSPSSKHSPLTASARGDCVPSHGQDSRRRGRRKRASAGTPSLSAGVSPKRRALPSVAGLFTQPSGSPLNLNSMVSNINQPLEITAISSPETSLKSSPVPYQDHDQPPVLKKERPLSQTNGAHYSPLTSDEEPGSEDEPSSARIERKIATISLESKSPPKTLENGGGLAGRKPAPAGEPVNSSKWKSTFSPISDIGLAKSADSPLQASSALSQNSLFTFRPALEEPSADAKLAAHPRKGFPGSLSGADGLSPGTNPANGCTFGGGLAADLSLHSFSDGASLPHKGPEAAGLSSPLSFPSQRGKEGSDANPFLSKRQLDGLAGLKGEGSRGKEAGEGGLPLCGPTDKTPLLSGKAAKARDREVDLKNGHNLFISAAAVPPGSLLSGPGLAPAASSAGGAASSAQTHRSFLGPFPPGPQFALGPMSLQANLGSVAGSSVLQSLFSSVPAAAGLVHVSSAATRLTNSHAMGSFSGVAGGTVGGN

No constants are given. Whether binding was seen depends on the method and setting. Binding seen in cells or lysates may run through a third protein. Some binding calls cover weakened binding; strength is not graded here. Where a sequence is shown, tags or fusion partners need not be part of it.

For the assay, the target named is hDOT1L-HA (human) (UniProt Q8TEK3). The assay can be described thus: co-immunoprecipitation from 293T cells, anti-FLAG IP, anti-HA blot.

B1: FLAG-tagged AF10 (protein, UniProt P55197 1-1068, looked up, not shown: small tags and cut ends)
chain: MVSSDRPVSLEDEVSHSMKEMIGGCCVCSDERGWAENPLVYCDGHGCSVAVHQACYGIVQVPTGPWFCRKCESQERAARVRCELCPHKDGALKRTDNGGWAHVVCALYIPEVQFANVSTMEPIVLQSVPHDRYNKTCYICDEQGRESKAATGACMTCNKHGCRQAFHVTCAQFAGLLCEEEGNGADNVQYCGYCKYHFSKLKKSKRGSNRSYDQSLSDSSSHSQDKHHEKEKKKYKEKDKHKQKHKKQPEPSPALVPSLTVTTEKTYTSTSNNSISGSLKRLEDTTARFTNANFQEVSAHTSSGKDVSETRGSEGKGKKSSAHSSGQRGRKPGGGRNPGTTVSAASPFPQGSFSGTPGSVKSSSGSSVQSPQDFLSFTDSDLRNDSYSHSQQSSATKDVHKGESGSQEGGVNSFSTLIGLPSTSAVTSQPKSFENSPGDLGNSSLPTAGYKRAQTSGIEEETVKEKKRKGNKQSKHGPGRPKGNKNQENVSHLSVSSASPTSSVASAAGSITSSSLQKSPTLLRNGSLQSLSVGSSPVGSEISMQYRHDGACPTTTFSELLNAIHNGIYNSNDVAVSFPNVVSGSGSSTPVSSSHLPQQSSGHLQQVGALSPSAVSSAAPAVATTQANTLSGSSLSQAPSHMYGNRSNSSMAALIAQSENNQTDQDLGDNSRNLVGRGSSPRGSLSPRSPVSSLQIRYDQPGNSSLENLPPVAASIEQLLERQWSEGQQFLLEQGTPSDILGMLKSLHQLQVENRRLEEQIKNLTAKKERLQLLNAQLSVPFPTITANPSPSHQIHTFSAQTAPTTDSLNSSKSPHIGNSFLPDNSLPVLNQDLTSSGQSTSSSSALSTPPPAGQSPAQQGSGVSGVQQVNGVTVGALASGMQPVTSTIPAVSAVGGIIGALPGNQLAINGIVGALNGVMQTPVTMSQNPTPLTHTTVPPNATHPMPATLTNSASGLGLLSDQQRQILIHQQQFQQLLNSQQLTPEQHQAFLYQLMQHHHQQHHQPELQQLQIPGPTQIPINNLLAGTQAPPLHTATTNPFLTIHGDNASQKVARLSDKTGPVAQEKS
For the molecule B1, the binding entry was “binds”.
